Results deposited as PubChem BioAssay AID1224826 (NIAID, 2016).
In all, the deposit lists about 17,000 reagents; shown is an unselected part. Over the whole deposit, about 1,110 (6.6%) were called active. 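Active means lowered or raised reporter signal; replicate intensities are raw and not normalised per plate.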 Further read-outs or replicates are left out here.

Test: 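Knock-downs that raise or lower Tnf reporter signal after endotoxin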 (primary screen)
Cell system: RAW264.7 G9 macrophages from mouse bearing reporters for p65 (GFP) and the Tnf promoter (mCherry)
Reagents: siRNA pool against mouse genes, 100 nM
Timing: 16 h of LPS stimulation, after 2 days of siRNA transfection
Conditions: bacterial lipopolysaccharide (Salmonella minnesota R595), 10 ng/ml
Measured: 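Imaged Tnf reporter mCherry in nuclei, minus background, normalised per plate to the median and expressed as robust z-scores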
Scale: Tnf reporter robust z-score: higher = stronger Tnf promoter reporter signal after LPS
Active means: 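Called active when robust z-score is at most -1.3, matching the median of the Tlr4 knock-down control, or over 3; control wells and wells with under 50 cells never active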
Calls: active = Tnf reporter clearly lowered or raised; inactive = no clear change in Tnf reporter

{"target gene": "Pgam2 (GeneID 56012)", "Tnf reporter robust z-score": -0.64, "fewer than 50 cells in well": "enough cells in well", "Outcome": "inactive"}
{"target gene": "Cd79a (GeneID 12518)", "Tnf reporter robust z-score": 0.56, "fewer than 50 cells in well": "enough cells in well", "Outcome": "inactive"}
{"target gene": "H2bc4 (GeneID 68024)", "Tnf reporter robust z-score": -0.78, "fewer than 50 cells in well": "enough cells in well", "Outcome": "inactive"}
{"target gene": "Erbb4 (GeneID 13869)", "Tnf reporter robust z-score": 0.2, "fewer than 50 cells in well": "enough cells in well", "Outcome": "inactive"}
{"target gene": "Plekhg3 (GeneID 263406)", "Tnf reporter robust z-score": -1.16, "fewer than 50 cells in well": "enough cells in well", "Outcome": "inactive"}
{"target gene": "Gpr141 (GeneID 353346)", "Tnf reporter robust z-score": -0.79, "fewer than 50 cells in well": "enough cells in well", "Outcome": "inactive"}
{"target gene": "Nadsyn1 (GeneID 78914)", "fewer than 50 cells in well": "fewer than 50 cells per well; well left out of calls", "Outcome": "inactive"}
{"target gene": "Mertk (GeneID 17289)", "Tnf reporter robust z-score": 2.86, "fewer than 50 cells in well": "enough cells in well", "Outcome": "inactive"}
{"target gene": "Arap1 (GeneID 69710)", "Tnf reporter robust z-score": 0.55, "fewer than 50 cells in well": "enough cells in well", "Outcome": "inactive"}
{"target gene": "Gm11961 (GeneID 327860)", "Tnf reporter robust z-score": 0.2, "fewer than 50 cells in well": "enough cells in well", "Outcome": "inactive"}
{"target gene": "Tcp11l1 (GeneID 320554)", "Tnf reporter robust z-score": -1.45, "fewer than 50 cells in well": "enough cells in well", "Outcome": "active"}
{"target gene": "Cenpb (GeneID 12616)", "Tnf reporter robust z-score": -0.19, "fewer than 50 cells in well": "enough cells in well", "Outcome": "inactive"}
{"target gene": "Sgcz (GeneID 244431)", "Tnf reporter robust z-score": -1.14, "fewer than 50 cells in well": "enough cells in well", "Outcome": "inactive"}
{"target gene": "Yipf3 (GeneID 28064)", "Tnf reporter robust z-score": -1.19, "fewer than 50 cells in well": "enough cells in well", "Outcome": "inactive"}

Entries listed so far whose target name begins with C or c (2):
{"target gene": "Cd79a (GeneID 12518)", "Tnf reporter robust z-score": 0.56, "fewer than 50 cells in well": "enough cells in well", "Outcome": "inactive"}
{"target gene": "Cenpb (GeneID 12616)", "Tnf reporter robust z-score": -0.19, "fewer than 50 cells in well": "enough cells in well", "Outcome": "inactive"}
